{"source": "PubChem BioAssay AID1508600", "about": "(Functional Genomics Laboratory (NCATS/FGL), 2020)", "note": "The whole screen tested about 53,000 sequences, of which about 3,700 (7%) were called active.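 Rule for the calls: active = gene knockdowns whose robust z-score for IL-1 alpha signal is at least 2 or at most -2, so actives lie on both sides; inactive = the rest.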 Some of the results follow."}
{"assay": "Components of the Cytosolic LPS Sensing Pathway: Gene Identification via Genome-wide siRNA Screen;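 note: robust z of the log signal after scaling to non-targeting control siRNA wells of the plate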", "conditions": "RAW264.7 macrophages, IL-1a HTRF, actives lie on both sides, screened at 100 nM (by protocol), cells primed 5 h with Pam3CSK4 first", "how_it_was_run": "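Knockdown: 100 nM siRNA, 48h, RAW264.7. Stimulation: Pam3CSK4 5 h, then LipidA via TransIT-TKO 24 h. Output: supernatant IL-1a HTRF, negative-control-normalized, log robust z-score; viability by CellTiter-Glo.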"}
{"sequence": "CCAAUGCUGAGGAGUCUUCTT against Dcun1d3", "z-score": "inactive: 0.00661"}
{"sequence": "GCACCAAGAAUUAUAUACATT against Usp8", "z-score": "inactive: 1.84"}
{"sequence": "GCAGAUAGCCCACGUCAUUTT against Nfkb2", "z-score": "inactive: 0.881"}
{"sequence": "GCAUAUACUUGAUUACCGUTT against Olfr830", "z-score": "inactive: -0.391"}
{"sequence": "GCUCAUGCAGAAAUGUUUUTT against Kri1", "z-score": "inactive: -0.371"}
{"sequence": "GGUUCCAUGAUAUCGGAACTT against Tbx15", "z-score": "inactive: 0.811"}
{"sequence": "GGAAAAUGCUCACAUAGUGTT against Pak1ip1", "z-score": "inactive: 0.442"}
{"sequence": "GGUCGAAAGUUGUUUGUCATT against Arr3", "z-score": "inactive: -1.55"}
{"sequence": "GGCCUGUUUGAACUCAUAGTT against Vrk3", "z-score": "inactive: -1.01"}
{"sequence": "CCACACUUUUCAGUAUAAUTT against Lin54", "z-score": "inactive: 0.897"}
{"sequence": "GGGAAAGUCAUUCAUCAAGTT against Stc2", "z-score": "inactive: 0.729"}
{"sequence": "GGUGUUGGAAGAGAUGCUGTT against Ap3m2", "z-score": "inactive: 0.405"}
{"sequence": "GGCUGUAUGACUCAGCUCUTT against Olfr711", "z-score": "inactive: -0.912"}
{"sequence": "CGGAUCAUUUACCCUUAUGTT against Kdm5d", "z-score": "inactive: -0.407"}
{"sequence": "CCCUGCUUGAAUCUCUUCGTT against Tyk2", "z-score": "inactive: -0.191"}
{"sequence": "GGACCAUGAGAAAUUUAAUTT against Nr2f1", "z-score": "inactive: 1.41"}
{"sequence": "GGUUUUUGAGUUUCUGAUUTT against Vps8", "z-score": "inactive: 1.28"}
{"sequence": "GGGAAUGCAUAUUAUGCUATT against Dnajc7", "z-score": "inactive: -0.16"}
{"sequence": "GCCAUGCUGACAAAGCUCATT against Hcn2", "z-score": "inactive: -0.969"}
{"sequence": "GGACUCAACUUGAAGAAAATT against Apoo", "z-score": "inactive: 0.969"}
{"sequence": "GCCGGGAGAAAUAAAUGGUTT against Mif", "z-score": "inactive: -0.654"}
{"sequence": "GCCCAGUUUGUCACAAAGCTT against Sorl1", "z-score": "inactive: -0.276"}
{"sequence": "GCCUUCUUCGACCGCUCAUTT against Zfp661", "z-score": "inactive: -0.0972"}
{"sequence": "GGAUGUGAUCAUAGCAUGGTT against Slc35e1", "z-score": "active: -2.07"}
{"sequence": "GCGCGAAUUCUACUUUGACTT against Kcnf1", "z-score": "inactive: -1.08"}
{"sequence": "GCAUGUAAGUACUAGAUUATT against Zfp619", "z-score": "inactive: -0.0816"}
{"sequence": "GGGUGAUAAGCAGUUAUACTT against Wdr75", "z-score": "inactive: 1.33"}
{"sequence": "CCCUGGGACUGAAUUUGGUTT against Scnn1b", "z-score": "inactive: -0.199"}
{"sequence": "GGAGACGACUGAAAUUGUCTT against A230083G16Rik", "z-score": "inactive: -1.56"}
{"sequence": "GGAGAGGAGAGAGGGAAAATT against Sox4", "z-score": "inactive: -1.65"}
{"sequence": "CCCUUUGACUAACCCUCUCTT against Tfpt", "z-score": "inactive: 0.985"}
{"sequence": "GACCGUCACCGCUAUGGAUTT against H4c14", "z-score": "inactive: 0.781"}
{"sequence": "CCUUGUUGACCCAACCAAATT against Nr1h3", "z-score": "inactive: -0.314"}
{"sequence": "GGAGAUGGAUAAUUACGAGTT against Ift27", "z-score": "inactive: 0.344"}
{"sequence": "GGAGAUGACCAAGUACCACTT against Hdac1", "z-score": "inactive: 0.544"}
{"sequence": "CCUUGAGCAAAUCACACAUTT against Stk32b", "z-score": "active: 3.94"}
{"sequence": "GGUCUAUCAGUCUAUCAGATT against Btbd1", "z-score": "inactive: -0.143"}
{"sequence": "CCGAUUGGCUCGAUACUAUTT against Rps13", "z-score": "inactive: -0.0912"}
{"sequence": "GCUGACGAAACCAUUGAAUTT against Ugt1a7c", "z-score": "inactive: -0.0843"}
{"sequence": "GGAUAAAACUAGAAAUGGGTT against Edem1", "z-score": "inactive: 0.00188"}
{"sequence": "CCUCAUAGCCAGUCUUUUUTT against Pafah2", "z-score": "inactive: -0.553"}
{"sequence": "GCACAAGGAAAUCUAUCUATT against Cenpj", "z-score": "inactive: 0.693"}
{"sequence": "GGAAGCAUACGAUCCUAUCTT against Catsperd", "z-score": "inactive: 1.75"}
{"sequence": "GGUGCAAACUAAAAAUCUUTT against Enc1", "z-score": "active: 2.73"}
{"sequence": "CCACGCUACAUGCAAUGGCTT against Itpka", "z-score": "inactive: 0.0149"}
{"sequence": "GCUGUACGAGCAUACUGUGTT against Tnxb", "z-score": "inactive: -1.46"}
{"sequence": "GGAAGACGAAGACGACAUUTT against Ercc3", "z-score": "inactive: 0.715"}
{"sequence": "GGAAGAAGGGCUUUCUUUGTT against Zbtb24", "z-score": "inactive: 0.25"}
{"sequence": "GGAGAAUUAAAAUGUGAAGTT against Hsd17b4", "z-score": "inactive: 0.161"}
{"sequence": "GCCACCAUUAUGGCUAUGGTT against Pcsk4", "z-score": "inactive: 0.497"}
{"sequence": "GGAAGUGAAGGAAAGCAUCTT against Vwa2", "z-score": "inactive: -0.631"}
{"sequence": "CCGGUUUGGGAAAAAGAAATT against Olfr610", "z-score": "inactive: -0.865"}
{"sequence": "GGCUUGUUUCUGUGAUGAATT against Zfp330", "z-score": "inactive: -1"}
